Data from patent US20070212355A1 (priority 2005, published 2007).
Results are given in words; binding and its absence hold for the method and conditions named. Some binding calls cover weakened binding; strength is not graded here.

Target: A2S GLP-2 IgG4 mimetibody
Assay: SEC-SLS, self-association of the mimetibody

binding: binds
B1: A2S GLP-2 IgG4 mimetibody (Fc fusion)
chain: HSDGSFSDEMNTILDNLAARDFINWLIQTKITDGSGGGSGTLVTVSSESKYGPPCPPCPAPEAAGGPSVFLFPPKPDTLMISRTPEVTCVVVDVSQEDPEVQFNWYVDGVEVHNAKTKPREEQFNSTYRVVSVLTVLHQDWLNGKEYKCKVSNKGLPSSIEKTISKAKGQPREPQVYTLPPSQEEMTKNQVSLTCLVKGFYPSDIAVEWESNGQPENNYKTTPPVLDSDGSFFLYSRLTVDKSRWQEGNVFSCSVMHEALHNHYTQKSLSLSLGK
